Hit rate of the full screen: of about 140,000 compounds, about 4,300 (3.1%) were called active. The inconclusive results got no clear call from the source; some entries with a clear call stand among them for comparison.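 Rule for the calls: active = readout at or below -70, meaning at least 70% loss of cells showing the perinucleolar compartment, a nuclear body marking cancer cells; inconclusive = readout between -30 and a set limit; inactive = the rest.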
Experiment: High Content Assay for Compounds that inhibit the Assembly of the Perinucleolar Compartment;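 note: plate controls were DMSO wells for no effect and camptothecin positive control wells for full effect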
Conditions: PC3M PTB-GFP, PNC prevalence imaging, 16 h; at 10 µM; hits give low values
Procedure, shortened: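 PC3M cells stably expressing PTB-GFP, 750–1000 cells/well, treated 16 h at 37 °C with compound (23 nl of library stock), in duplicate. After paraformaldehyde fixation and Hoechst stain, imaged at 20x; PNC prevalence scored by image analysis.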

SMILES | activity change (PNC), negative = inhibition
Cc1nc2ccc(Br)cn2c(=O)c1Cl | inconclusive: -33.2%
Cc1ccc2[nH]ccc(=O)c2c1 | inconclusive: -74%
COc1cccc(OC)c1C(=O)NC(C)c1ccccc1 (stereo unspecified) | inconclusive: -55%
O=C(Nc1nc2ccc(F)cc2s1)C1CCCO1 (stereo unspecified) | inactive: 67.5%
Cc1ccc(S(=O)(=O)N2CCCC(C(=O)NCc3ccco3)C2)cc1Cl (stereo unspecified) | inconclusive: -33.4%
Cn1c(Cc2cccs2)nnc1SC/C=C/c1ccccc1 | active: -100%
COc1ccc(C(=O)NC(=S)N2CCCCC2)cc1 | inactive: -7.02%
COc1ccc(/C=N/Nc2nc(-c3cccc(S(=O)(=O)N4CCCC4)c3)cs2)cc1OC | inconclusive: -35.2%
O=C(COc1ccccc1)Nc1nn[nH]n1 | inactive: -7.1%
O=C1CN(C(=O)CSc2nnc(Nc3ccccc3)s2)c2ccccc2N1 | inconclusive: -40.2%
Fc1cccc(-n2c(-c3ccco3)nc3nc4ccccc4nc32)c1 | inactive: 10.1%
Cn1nnnc1SCCNCc1cc(Cl)ccc1OCc1ccccc1 | inactive: -3.34%
NS(=O)(=O)c1ccc(CCNC(=O)CCCCCNc2nc(=S)[nH]c3ccccc23)cc1 | inactive: 18.2%
Cc1ccc(C(=O)c2cc([N+](=O)[O-])ccc2N2CCCCC2)cc1C | inconclusive: -66.1%
CCCCN(CC)CCCNC(=O)CC1Nc2ccccc2NC1=O (stereo unspecified) | inconclusive: -32.7%
Cc1onc(-c2ccccc2)c1C(=O)n1cccn1 | inconclusive: -75%
CCOc1cccc(-c2nnc3n2N=C(c2cc(OC)ccc2OC)CS3)c1 | active: -98.6%
CCCCOC(=O)Oc1ccc2c(=O)c(Oc3cc(C)cc(C)c3)coc2c1 | inconclusive: -37.7%
CSc1nc(N2CCOCC2)c2c(c1C#N)CCCCC2 | inconclusive: -53.9%
C#CCn1c(S(=O)(=O)Cc2ccc(C)cc2)nc(-c2ccccc2)c1-c1ccccc1 | inconclusive: -74.6%
Cc1noc(C)c1CSc1nc2[nH]ncc2c(=O)n1-c1ccccc1 | active: -100%
CCCn1c(SCC(=O)N2c3ccccc3CCc3ccccc32)nc2c1c(=O)n(C)c(=O)n2C | inconclusive: -39.8%
Cc1ccccc1-c1nc2sc3c(c2c(=O)n1N)CCCC3 | inconclusive: -57.5%

SMILES | activity change (PNC), negative = inhibition
O=C(CSc1nc2ccc(Cl)cc2[nH]1)N1CCN(C(=O)c2ccco2)CC1 | inconclusive: -68.8%
CCCn1nc2cc(C(=O)NCCc3cccs3)ccc2c1OCC | inconclusive: -79.6%
C=CCOc1ccc(CNCCO)cc1OCC | inconclusive: -79.5%
CCn1c(-c2cc(-c3cc(OC)ccc3OC)nc3ccccc23)n[nH]c1=S | inconclusive: -46.6%
COc1ccc(C(=O)NCc2nnc(SCC(=O)N3CCc4ccccc43)n2CCc2ccccc2)cc1 | inactive: 8.87%
Cc1ccc(NC(=O)C(SCC(=O)O)c2ccccc2)cc1C (stereo unspecified) | inactive: -29%
CC(=O)O[C@@H]1[C@@]2(C)O[C@H]2CC[C@]23O[C@H]2[C@H](OC3=O)C2=C(C)C(=O)O[C@@]21O | inactive: 46.3%
O=C(COc1ccccc1)Nc1ccc(-c2nnc(-c3ccco3)o2)cc1 | inactive: -13.3%
N#Cc1nc(-c2ccccc2Cl)oc1NCC1CCCO1 (stereo unspecified) | inconclusive: -52%
COc1ccc(/C=N/NC(=O)c2ccc(Cl)cc2)cc1Cn1cc(Cl)cn1 | inconclusive: -39.6%
O=C(CN1CCOCC1)Nc1ccc(S(=O)(=O)NC2CCCCC2)cc1 | inconclusive: -41.1%
COc1cc(C2c3c(n[nH]c3C)C(=O)N2c2ccc(C)cc2)ccc1O (stereo unspecified) | inconclusive: -41.3%
O=[N+]([O-])c1cccc(C(=S)N2CCN(c3ccccc3)CC2)c1 | inactive: 38.8%
COc1ccccc1NC(=O)N(Cc1ccco1)Cc1cc2cccc(C)c2[nH]c1=O | inconclusive: -32.9%
CC1(C)Cc2nc3oc4c(N5CCOCC5)ncnc4c3cc2CO1 | active: -109%
C=CCc1ccccc1OCC(=O)N/N=C/c1ccccc1OCC | inconclusive: -42.5%
Cc1ccc(NC(=O)COC(=O)c2ccn(C)n2)cc1 | inconclusive: -70.8%
O=S1(=O)CCN=C2SC3=C(CCCC3)N21 | inconclusive: -43.8%
O=C(O)c1ccccc1NS(=O)(=O)c1ccc2c3c(cccc13)C(=O)N2 | inactive: 7.01%
CCc1ccc(CNC(=O)C2CCC(=O)N2C2CCCCC2)cc1 (stereo unspecified) | inconclusive: -30.4%
CCCCCCOC1(c2ccccc2)OC(=O)c2ccccc21 (stereo unspecified) | inactive: -9.83%
CCOC(=O)N1CCN(CC(=O)c2c[nH]c3ccc(F)cc23)CC1 | inconclusive: -57.7%
COc1ccc2[nH]c(C)c(CCN(Cc3cccs3)C(=S)Nc3ccc(F)cc3)c2c1 | inactive: -27%

SMILES | activity change (PNC), negative = inhibition
CCN(CC)C(=O)NC1CC(=O)N(c2ccc(OC)cc2)C1 (stereo unspecified) | inconclusive: -34.1%
COCCn1nnnc1C(c1ccc(OC)cc1OC)N1CCN(c2ccccc2)CC1 (stereo unspecified) | inactive: 18.6%
COc1ccc(C(=O)N/N=C/c2ccc(OC(=O)c3cccc4ccccc34)c([N+](=O)[O-])c2)cc1 | inactive: -19.5%
CCN(C(=O)c1c(C)cc(=O)oc1C)c1ccc2c(c1)OCO2 | inconclusive: -38.6%
Cc1nc2ccc(S(=O)(=O)N(C)CC(=O)N3CCc4ccccc4C3)cc2s1 | inconclusive: -46.1%
CCOc1ccc(NC(=S)/C(=C(\[O-])c2ccc(C)c([N+](=O)[O-])c2)[n+]2ccccc2)cc1 | inconclusive: -48.5%
Fc1ccc(NCc2nnc(SCc3nnc(-c4ccccc4)o3)n2CC2CCCO2)cc1 (stereo unspecified) | inconclusive: -77.7%
O=C(O)C1CCC(CNCc2ccccc2Cl)CC1 (stereo unspecified) | inconclusive: -44.2%
O=C(CSc1nnc(C23CC4CC(CC(C4)C2)C3)o1)Nc1ccc(N2CCOCC2)c(Cl)c1 | inconclusive: -31.3%
O=C(c1ccc2c(c1)OCO2)N1CCOCC1 | active: -100%
CCOC(=O)c1ccc(NC(=O)c2cn(CCC#N)nc2-c2ccc3c(c2)OCCO3)cc1 | inconclusive: -40.4%
CCOc1ccc(Br)cc1S(=O)(=O)Nc1nc(CN2CCOCC2)nc2sc(C)c(C)c12 | inconclusive: -60.8%
Cc1cc2c(=O)n(Cc3ccco3)c(SCC(=O)N3CCCc4ccccc43)nc2s1 | inactive: -5.19%
Cc1ccc(NC(=S)N2CCOCC2)cc1 | inconclusive: -45.9%
O=C(O)c1ccccc1O | inconclusive: -48.3%
COc1ccc(CNC(=O)c2cnn3c(C(F)F)cc(C)nc23)cc1OC | inactive: 3.75%
O=C(Nc1ccccc1)c1cc(-n2cnnc2)ccc1Cl | inconclusive: -46.7%
Cc1ccc(C(=O)Nc2ncc3c(Cl)cccc3n2)cc1 | inconclusive: -47.1%
CCOC(=O)CC(=O)CSC1=C(C#N)C(c2ccccc2OC)CC(=O)N1 (stereo unspecified) | inconclusive: -42.9%
O=C(NC(=S)Nc1ccc(C(=O)N2CCOCC2)cc1)c1ccc([N+](=O)[O-])cc1 | inconclusive: -51%
COc1ccc(NC(=S)Nc2ccc(C)c(S(=O)(=O)N3CCCCC3)c2)cc1 | inconclusive: -40.5%
Cc1ccc(C(CC(=O)NCc2ccco2)c2ccccc2)c(O)c1 (stereo unspecified) | inactive: 6.23%
COc1ccc(-c2noc(N(C)CC(=O)Nc3cccc(C(F)(F)F)c3)n2)cc1 | inconclusive: -42.7%

5 compounds drawn at random from those above:
SMILES | activity change (PNC), negative = inhibition
Cc1ccc(NC(=S)N2CCOCC2)cc1 | inconclusive: -45.9%
O=C(Nc1ccccc1)c1cc(-n2cnnc2)ccc1Cl | inconclusive: -46.7%
CCOc1ccc(NC(=S)/C(=C(\[O-])c2ccc(C)c([N+](=O)[O-])c2)[n+]2ccccc2)cc1 | inconclusive: -48.5%
CCOC(=O)CC(=O)CSC1=C(C#N)C(c2ccccc2OC)CC(=O)N1 (stereo unspecified) | inconclusive: -42.9%
CCN(C(=O)c1c(C)cc(=O)oc1C)c1ccc2c(c1)OCO2 | inconclusive: -38.6%

The list continues.

SMILES | activity change (PNC), negative = inhibition
COc1ccc(-c2cc(C(F)(F)F)nc(SCc3cccc(C(=O)O)c3)n2)cc1 | inconclusive: -31.2%
Cc1ccc(OC(=O)c2oc3ccc(F)cc3c2C)c(C)c1 | inconclusive: -35.1%
O=C(Nc1ncccn1)c1cccs1 | inconclusive: -54.5%
O=C(Cc1ccccc1)Nc1ccc(Br)c(Cl)c1 | active: -82.1%
O=S1(=O)CCC(NC(=S)NCCNC(=S)NC2CCS(=O)(=O)C2)C1 (stereo unspecified) | inconclusive: -53.5%
O=C(Nc1cc(C(F)(F)F)ccc1F)C1CCC1 | inconclusive: -57.5%
Cc1cccc(NC(=O)Cc2coc3ccc4ccccc4c23)n1 | inactive: 11%
COc1ccc(CCNc2oc(COc3ccccc3Cl)nc2C#N)cc1OC | inconclusive: -41.2%
Cc1ccccc1NC(=S)NC(=O)c1cc(-c2ccccc2)nc2ccccc12 | inconclusive: -42.9%
COC(=O)[C@@]1(Cc2ccc(F)cc2)[C@H]2c3cc(C(=O)N(C)C)n(CCc4ccccn4)c3C[C@H]2CN1C(=O)c1ccccc1 | inconclusive: -45.9%
COc1cc(NC(=O)Cn2nc(C(F)(F)F)c(Br)c2C)cc([N+](=O)[O-])c1 | inconclusive: -42.9%
Cc1ncsc1C(=O)Nc1nc2c(s1)CCCC2 | inconclusive: -73.4%
CCOC(=O)CN1C(=O)C2(OCCCO2)c2ccccc21 | inactive: 7.42%
CCOC(=O)Cn1c(=O)oc2cc(S(=O)(=O)Nc3ccc(F)cc3)ccc21 | inconclusive: -39.7%
COCCn1c(C)cc(C2=NNC(=Nc3ccccc3)SC2)c1C | inactive: 1.76%
CC1=C(C(=O)OC(C)C)C(c2ccccc2)NC(=S)N1C (stereo unspecified) | inconclusive: -31.7%
CC(C)(C)Nc1ncnc2c1cnn2-c1ccccc1 | inconclusive: -39.1%
O=C(Cn1sc2ccccc2c1=O)NC12CC3CC(CC(C3)C1)C2 | inactive: 18.4%
O=C(NO)c1ccc(OC(F)F)cc1 | inactive: 144%
CC(C)CCOCc1nc2sc3c(c2c(=O)[nH]1)CCC(C)C3 (stereo unspecified) | inactive: -12.6%
O=C(c1ccccc1)c1ccc(N2CCOCC2)c(NC(=O)c2ccco2)c1 | inactive: 0.079%
COc1cc(/C=C2\SC(=Nc3ccccc3)N(CCc3c[nH]c4ccccc34)C2=O)ccc1OC(C)C(=O)O (stereo unspecified) | inconclusive: -45.9%
